The record followed here is patent US6509401B1, “Synergistic flame retardant combination of salts of 1-hydroxy-dihydrophosphole oxides and/or 1-hydroxyphospholane oxides and nitrogen compounds for use in polymers” (Clariant GmbH, priority 1997, dated 2003).

Each structure is given as a SMILES string.

Series [1] is described as follows: UL 94 test (Underwriter Laboratories) flame retardancy classification of injection-molded test specimens. More on the design: key: n. c. = not classifiable.
Series [2] is described as follows: Oxygen index (LOI in accordance with ASTM D 2863-77).
Where [3] appears, read: PBT-GV, nitrogen compound 10 % as sole flame retardant.
Setting [4] is: PBT-GV, nitrogen compound 20 % as sole flame retardant.
[5] abbreviates: PBT-GV, 20 % as sole flame retardant.
Where [6] appears, read: PBT-GV, 25 % as sole flame retardant.
[7] abbreviates: ABS, 30 % as sole flame retardant.

`Nc1nc(N)nc(N)n1.O=P(O)(O)O` [Melamine phosphate]: the “UL 94 classification (1.6 mm)” value in series [1] (setting [3]) and in series [1] (setting [4]) was “n. c.*)” each time.

For `CC1CCP(=O)([O-])C1.CC1CCP(=O)([O-])C1.CC1CCP(=O)([O-])C1.[Al+3]` (stereo not shown) [Methyl-PHOLAL, Aluminum salt of 1-hydroxy-3-methyl-1H-phospholane 1-oxide], the “UL 94 classification (1.6 mm)” value in series [1] (setting [5]) and in series [1] (setting [6]) was “n. c.*)” throughout.

In the case of `O=P1([O-])CCCC1.O=P1([O-])CCCC1.O=P1([O-])CCCC1.[Al+3]` [PHOLAL, Aluminum salt of 1-hydroxy-1H-phospholane 1-oxide], the “UL 94 classification (1.6 mm)” value in series [1] (setting [7]) was “n. c.*)”. For the same molecule, the LOI turned out to be 22.5% in series [2] (setting [7]); 28.5% in series [2] (PA 6, 15 % as sole flame retardant); 28.0% in series [2] (PA 6, 20 % as sole flame retardant); 37.0% in series [2] (setting [5]); 41.0% in series [2] (setting [6]); 33.0% in series [2] (PBT, 10 % as sole flame retardant). The LOI is recorded as 34.0% in series [2] (PBT, 15 % as sole flame retardant) and 37.0% in series [2] (PBT, 20 % as sole flame retardant).

In the case of `Nc1nc(N)nc(N)n1.O=c1[nH]c(=O)[nH]c(=O)[nH]1` [Melamine cyanurate], the “UL 94 classification (1.6 mm)” value in series [1] (setting [3]) is “n. c.*)”; in series [1] (setting [4]) it was “n. c.*)”; in series [1] (PBT-GV, nitrogen compound 25 % as sole flame retardant), “n. c.*)”.
